Values from PubChem BioAssay AID743454 (Peter MacCallum Cancer Centre, 2014)
Here is an unselected part of about 18,000 deposited reagents. Over the whole deposit, 450 (2.5%) got an active call. 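Single biological run; no consistent viability z cut-off exists, so the class columns, not z-scores, define the calls.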 No sequences are given here.

Test: 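Genes whose loss kills vorinostat-resistant colon cancer cells under vorinostat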 (primary screen)
System: human HCT116-VR colon cancer cells, selected for vorinostat resistance
Knock-down reagent: siRNA pool against human genes, 40 nM siRNA pool
Duration: vorinostat for 24 h, read-out about 72 h after transfection
Challenge: vorinostat at 2.5 µM final
Detection: 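Cell viability by CellTiter-Fluor and caspase 3/7 activity by luminescence, each scaled to mock wells per plate, duplicates averaged, then robust z-scored over all plates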
Reading the numbers: viability robust z-score: higher = more viable cells than screen typical; caspase robust z-score: higher = more caspase 3/7 activity than screen typical
Rule for the call: 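a knock-down is a hit when classed RV1 or RV2 for lowered viability, or CA1 or CA2 for caspase activation; those lethal without drug were dropped; hits were retested singly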

no.	target	viability hit class	caspase hit class	viability robust z-score	caspase robust z-score	call
1	PRKG2 (GeneID 5593)	no change	no change	0.12	-0.4	inactive
2	MTIF3 (GeneID 219402)	no change	no change	0.54	0.98	inactive
3	UCHL5 (GeneID 51377)	no change	no change	0.51	-0.59	inactive
4	SLC13A3 (GeneID 64849)	no change	no change	0.23	0.36	inactive
5	CUL4A (GeneID 8451)	no change	no change	0.06	-0.02	inactive
6	TK2 (GeneID 7084)	no change	no change	1.86	-0.36	inactive
7	OR6Q1 (GeneID 219952)	no change	no change	0.24	-0.5	inactive
8	MAP4K4 (GeneID 9448)	no change	no change	0.62	-0.18	inactive
9	ANAPC13 (GeneID 25847)	no change	no change	0.79	0.06	inactive
10	RASSF2 (GeneID 9770)	no change	no change	-2.41	-0.64	inactive
11	TXNL4B (GeneID 54957)	no change	no change	0.62	-0.49	inactive
12	HMGN4 (GeneID 10473)	no change	no change	-2.7	0.78	inactive
13	WDR47 (GeneID 22911)	no change	no change	-0.14	-0.18	inactive
14	DDX25 (GeneID 29118)	no change	no change	0.06	-0.32	inactive
15	ZMYND10 (GeneID 51364)	no change	no change	0.32	-0.88	inactive
16	UGT2B28 (GeneID 54490)	no change	no change	-0.43	-0.74	inactive

2 entries already listed, sorted by “viability robust z-score”, lowest first:
target	viability hit class	caspase hit class	viability robust z-score	caspase robust z-score	call
OR6Q1 (GeneID 219952)	no change	no change	0.24	-0.5	inactive
TK2 (GeneID 7084)	no change	no change	1.86	-0.36	inactive

The listing continues:
no.	target	viability hit class	caspase hit class	viability robust z-score	caspase robust z-score	call
17	LIMD2 (GeneID 80774)	no change	no change	0.09	-0.52	inactive
18	RPSA (GeneID 3921)	no change	no change	-3.21	-1.36	inactive
19	DPEP2 (GeneID 64174)	no change	no change	-0.2	-0.77	inactive
20	CT47A7 (GeneID 653282)	no change	no change	0.26	1.14	inactive
21	ZNF426 (GeneID 79088)	no change	no change	0.42	-0.22	inactive
22	PDLIM3 (GeneID 27295)	no change	no change	-0.57	0.29	inactive
23	FKBP11 (GeneID 51303)	no change	no change	-0.22	-0.5	inactive
24	POLR1F (GeneID 221830)	no change	no change	-2.76	0.22	inactive
25	PABPN1L (GeneID 390748)	no change	no change	0.13	2.4	inactive
26	TRIM74 (GeneID 378108)	no change	no change	0.9	-0.34	inactive
27	CGRRF1 (GeneID 10668)	no change	CA2 (caspase activation)	-2.68	6.83	active
28	MRM1 (GeneID 79922)	no change	no change	-2.63	3.71	inactive
29	STAC2 (GeneID 342667)	no change	no change	0.66	-0.68	inactive
30	SMYD4 (GeneID 114826)	no change	no change	-0.08	-0.39	inactive
31	C16orf86 (GeneID 388284)	no change	no change	1.44	0	inactive
32	CHRM2 (GeneID 1129)	no change	no change	-0.68	-0.74	inactive
33	MIR1-1HG (GeneID 128826)	no change	no change	-1.03	-0.76	inactive
34	B3GALT6 (GeneID 126792)	no change	no change	0.84	-0.29	inactive
35	PDS5A (GeneID 23244)	no change	no change	0.06	-0.88	inactive
36	SNX25 (GeneID 83891)	no change	no change	0.88	-0.86	inactive
37	EXOC3L4 (GeneID 91828)	no change	no change	0.58	-0.26	inactive
38	CNTN5 (GeneID 53942)	no change	no change	1.02	4.29	inactive
39	FPR3 (GeneID 2359)	no change	no change	-0.69	0.62	inactive
